Hit rate of the full screen: of about 320,000 compounds, about 22,000 (6.9%) were called active. Inconclusive means that the source gave no clear call. Such entries were picked first, then a sample of the others. The call rests on the fitted dose curve; in most records, active means well fitted inhibition curve with a large enough effect; inconclusive means small, poorly fitted or top-dose-only effect, or another doubt; inactive means no such curve, though single readings can be large or run the other way. Potencies beside an inconclusive call are fits to weak or partial responses and may not hold up.
experiment: Primary qHTS for delayed death inhibitors of the malarial parasite plastid, 96 hour incubation; settings: P. falciparum luciferase reporter growth; series mostly up to 28.7 µM
Outline: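 Luminescence readout: decreased luciferase signal marks inhibited growth of reporter-expressing P. falciparum in infected red cells (2% hematocrit, 0.05% parasitemia final), exposed to compound two generations (96 h, 37 C, 5% CO2).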
Potency means the concentration at half of the fitted maximal effect.

SMILES	Potency
COc1cccc(NC(=S)N2CCc3cc(OC)c(OC)cc3C2COc2ccc3c(C)cc(=O)oc3c2)c1 (stereo not given)	inconclusive: 18.5 µM [inhibitor, single point]
Cc1ccc(S(=O)(=O)N2CCOc3ccccc32)c(C)c1NS(C)(=O)=O	inconclusive: 8.28 µM [inhibitor, partial curve]
Cc1nc(NC(=O)c2ccccc2)sc1C1(C)CC(c2ccccc2F)=NO1 (stereo not given)	inconclusive: 4.65 µM [inhibitor, partial curve, poor fit]
CN(C)CCCN(C(=O)CCc1ccccc1)c1nc2ccc(F)cc2s1	inconclusive: 0.117 µM [inhibitor, partial curve, poor fit]
O=C(Nc1c2c(nn1-c1ccc(F)cc1)CS(=O)(=O)C2)c1ccc(Br)o1	inconclusive: 10.4 µM [inhibitor, single point]
CC(C)Cn1c(O)c(N=NC(=O)c2cccc(S(=O)(=O)N3CCCCC3)c2)c2ccccc21	inconclusive: 10.4 µM [inhibitor, partial curve]
CC(Sc1nncs1)C(=O)NC1CCCCC1C (stereo not given)	inactive
CCN1CCN(C(=O)/C=C/c2ccccc2[N+](=O)[O-])CC1	inactive
O=C1N=C(N2CCOCC2)S/C1=C1\C(=O)N(Cc2ccccc2)c2ccccc21	inconclusive: 11.7 µM [inhibitor, partial curve]
O=C(Nc1cccc(S(=O)(=O)N2CCCCCC2)c1)C1CCN(C(=O)c2ccc(F)cc2)CC1	inconclusive: 0.329 µM [inhibitor, full curve, poor fit]
COCCCNC(=S)N1CCN(c2nc(-c3cccc(OC)c3)cs2)CC1	inactive
O=C(CCCN1C(=O)C(c2ccccc2)Oc2cccnc21)Nc1ccccc1Cl (stereo not given)	inconclusive: 14.7 µM [inhibitor, partial curve, poor fit]
CC(C)(C)c1ccc(CN2C(=O)CN=C(c3ccccc3)c3ccccc32)cc1	active: 1.31 µM
CC1CCCCN1C(=O)c1ccc(OC2CCN(S(=O)(=O)N(C)C)CC2)cc1 (stereo not given)	inactive
CCC(=O)Nc1ccc(N2CCN(C(=O)c3ccco3)CC2)c(Cl)c1	inconclusive: 14.7 µM [inhibitor, single point]
COc1ccc(C2C(C(=O)/C=C/c3ccco3)=C(O)C(=O)N2CCN2CCOCC2)cc1 (stereo not given)	inactive
CSc1ncc(C(=O)Nc2cc(C)ccc2C)c(C)n1	inconclusive: 3.7 µM [inhibitor, full curve, poor fit]
Cc1ccccc1NC(=O)CSc1ccc(-c2cccnc2)nn1	active: 10.4 µM
COc1ccc(OC)c(S(=O)(=O)N2CCC(c3nc4ccccc4[nH]3)CC2)c1	active: 10.4 µM
CCOc1ccc(NC(=O)N(CC(C)C)CC(C)C)cc1	inactive
COc1ccc(N2CCN(C(=O)Cc3csc(NC(=O)Nc4ccccc4OC)n3)CC2)cc1	inconclusive: 2.08 µM [inhibitor, full curve]
Cc1cc(C)cc(NS(=O)(=O)c2c(C(=O)N3CCOCC3)c(C)n(C)c2C)c1	inconclusive: 18.5 µM [inhibitor, single point]
Cc1nn(Cc2ccc(Cl)cc2)c(C)c1NC(=O)Cn1nc([N+](=O)[O-])c(Cl)c1C	inconclusive: 0.0026 µM [inhibitor, full curve, poor fit]
Cc1ccccc1N1CC(C(=O)Nc2ccc(S(=O)(=O)NCC3CCCO3)cc2)CC1=O (stereo not given)	inconclusive: 14.7 µM [inhibitor, partial curve, poor fit]

5 records drawn at random from the list so far, as already listed:
SMILES	Potency
COc1ccc(OC)c(S(=O)(=O)N2CCC(c3nc4ccccc4[nH]3)CC2)c1	active: 10.4 µM
CCN1CCN(C(=O)/C=C/c2ccccc2[N+](=O)[O-])CC1	inactive
CSc1ncc(C(=O)Nc2cc(C)ccc2C)c(C)n1	inconclusive: 3.7 µM [inhibitor, full curve, poor fit]
CC1CCCCN1C(=O)c1ccc(OC2CCN(S(=O)(=O)N(C)C)CC2)cc1 (stereo not given)	inactive
Cc1nn(Cc2ccc(Cl)cc2)c(C)c1NC(=O)Cn1nc([N+](=O)[O-])c(Cl)c1C	inconclusive: 0.0026 µM [inhibitor, full curve, poor fit]

Carrying on.

SMILES	Potency
FC(F)(F)C(F)(F)C(F)(F)C(F)(F)C(F)(F)F	inconclusive: 0.0027 µM [inhibitor, partial curve, poor fit]
CCOC(=O)N1CCC(NC(=O)c2csc3c2CCCC3)CC1	inactive
COc1cccc(C(=O)Nn2cnnc2)c1	inconclusive: 0.0037 µM [inhibitor, full curve, poor fit]
Cc1ccc(NC(=O)CN2C(=O)N/C(=C/c3ccco3)C2=O)cc1	inactive
OCCCNCc1ccc(-c2ccccc2)cc1	inactive
O=C(Nc1ccc(Br)cc1)Nn1cnnc1	inactive
O=C(CCSCc1ccccc1F)N1CCN(c2ccccn2)CC1	inconclusive: 18.5 µM [inhibitor, single point]
CCOC(=O)C1(CCc2ccccc2)CCN(C(=O)C(C)n2cncn2)CC1 (stereo not given)	inconclusive: 9.28 µM [inhibitor, single point]
O=C(CSCc1c(F)cccc1F)Nc1ccccc1	inconclusive: 11.7 µM [inhibitor, single point]
CCN(CC)S(=O)(=O)c1ccc(/C=C/C(=O)Nc2ccc(F)c(F)c2F)cc1	inconclusive: 1.85 µM [inhibitor, partial curve, poor fit]
CS(=O)(=O)N1CCN(c2ccccc2NC(=O)c2ccc3ccccc3c2)CC1	inconclusive: 14.7 µM [inhibitor, partial curve, poor fit]
COC(=O)c1cn(-c2ccc(F)cc2)c(=O)c2ccccc12	inconclusive: 11.7 µM [inhibitor, partial curve]
Cc1ccc(N(C)S(=O)(=O)c2cccc(C(=O)NCC(c3cccs3)N3CCOCC3)c2)cc1 (stereo not given)	inconclusive: 10.4 µM [inhibitor, single point]
CCOC(=O)C1=NN(c2ccc([N+](=O)[O-])cc2)CC1C(=O)OC (stereo not given)	inconclusive: 11.7 µM [inhibitor, single point]
O=c1ccccn1CCOc1ccccc1Cl	inactive
O=C(C1=C(O)C(=O)N(CCCN2CCOCC2)C1c1ccncc1)c1cc2ccccc2o1 (stereo not given)	inconclusive: 10.4 µM [inhibitor, single point]
Cn1c(=O)oc2cc(S(=O)(=O)N3CCCc4ccccc43)ccc21	inactive
O=C(CN1C2CCCC1CC(NC(=O)C1CCCCC1)C2)NCc1ccc(F)cc1 (stereo not given)	inconclusive: 14.7 µM [inhibitor, single point]
COc1ccccc1C(=O)N/C(=C/c1ccco1)C(=O)Nc1cccc(C(=O)O)c1	inactive
Cc1cc(C)c2cc(CN(Cc3ccc4c(c3)OCO4)Cc3nnnn3Cc3ccco3)c(=O)[nH]c2c1	inconclusive: 1.85 µM [inhibitor, full curve, poor fit]
C=C1CCC[C@]2(C)C[C@H]3OC(=O)C(CNC(C)CCCC(C)C)[C@H]3CC12 (stereo not given in full)	inconclusive: 16.5 µM [inhibitor, single point]
Cc1ccc(C2Nc3cccc4cccc(c34)N2)s1	inconclusive: 14.7 µM [inhibitor, partial curve, poor fit]
CCOC(=O)COc1ccc2c3c(c(=O)oc2c1)CCCC3	inconclusive: 18.5 µM [inhibitor, single point]
Cc1ccnc(Sc2ccc([N+](=O)[O-])cc2[N+](=O)[O-])n1	inconclusive: 4.65 µM [inhibitor, partial curve, poor fit]

SMILES	Potency
COc1cccc(CN2CCN(CC(=O)Nc3ccccc3Cl)CC2)c1	inconclusive: 6.57 µM [inhibitor, partial curve]
N#Cc1cc([N+](=O)[O-])ccc1NC(=O)COC(=O)CCC1CCCCC1	inconclusive: 13.1 µM [inhibitor, partial curve, poor fit]
Cc1[nH]n(-c2ccccc2)c(=O)c1N=Nc1c(O)cc(S(=O)(=O)N(C)C)c2ccccc12	active: 4.15 µM
CC1=C(C(=O)O)N2C(=O)[C@@H](NC(=O)[C@@H](N)c3ccc(O)cc3)[C@@H]2SC1	inactive
CCSc1cc(N2CCCC2)nc(-c2ccc(F)cc2)n1	inconclusive: 16.5 µM [inhibitor, partial curve, poor fit]
COc1ccc(-n2c(CCc3ccccc3)nnc2SCC(=O)NCc2ccccc2)cc1	active: 10.4 µM
COc1cccc(C(=O)N2CCN=C2SCc2cccnc2)c1OC	inconclusive: 4.65 µM [inhibitor, partial curve, poor fit]
CNc1ccc(/C=C2\COc3ccccc3C2=O)cc1[N+](=O)[O-]	inactive
O=C(CSc1nnc2sc3ccccc3n12)NCc1ccc2c(c1)OCO2	inconclusive: 11.7 µM [inhibitor, single point]
c1ccc(Nc2ccc3c4c(cccc24)CC3)cc1	inactive
CC(=O)Nc1ccc(C(=O)OCc2ccc(F)cc2Cl)cc1	inconclusive: 13.1 µM [inhibitor, partial curve, poor fit]
CC(Sc1nnnn1C)C(=O)Nc1ccccc1-c1ccccc1 (stereo not given)	inactive
CC1CC(O)CC(C)(C)C1 (stereo not given)	inactive
CC(C)(C#N)C(C)(C)c1nn[nH]n1	inactive
Cc1cccc(OCC(=O)O/N=C(\N)c2ccc(Br)cc2)c1	inactive
Cc1cc(C)cc(NC(=O)c2oc3ccccc3c2COc2ccccc2)c1	inactive
O=C(CN1C(=O)c2cccc3cccc(c23)C1=O)N1CCCCC1	inconclusive: 0.0738 µM [inhibitor, full curve, poor fit]
Cc1ccc(S(=O)(=O)c2nc(S(C)(=O)=O)sc2N2CCC(C)CC2)cc1	inconclusive: 18.5 µM [inhibitor, single point]
CNCC(C)COc1ccccc1OCc1ccccc1 (stereo not given)	active: 11.7 µM
COC(=O)c1ccc(OC(=O)c2cccs2)cc1	inconclusive: 10.4 µM [inhibitor, single point]
C=CCn1c(O)c(C(CC)=NCCc2c[nH]c3ccccc23)c(=O)[nH]c1=O	inconclusive: 11.7 µM [inhibitor, partial curve]
CSc1nc2ccc(NC(=O)c3ccc(F)c(F)c3)cc2s1	inactive
